From US20160053227A1, “AGENT FOR INDUCING DIFFERENTIATION OF WHITE ADIPOCYTES INTO BROWN-LIKE ADIPOCYTES” (UHA MIKAKUTO CO., LTD., priority 2013, published 2016)
At least one structure is not confirmed: it was looked up by name or label, or the drawing left a doubt.

Tests used:
Type in all cases: cell-based
[1] = tested on: 3T3-L1 cell (mouse-derived precursor adipocyte); assay: Example I-2: index gene expression for white-to-brown-like adipocyte differentiation, real-time RT-PCR, matured adipocytes
[2] = tested on: human subcutaneous fat-derived normal precursor adipocyte; assay: Example I-3: index gene expression for brown-like adipocyte differentiation in normal human subcutaneous fat cells, real-time RT-PCR
[3] = tested on: 3T3-L1 cell (mouse-derived precursor adipocyte); assay: Example II-2: index gene expression in adipocytes immediately after inducing differentiation, real-time RT-PCR; conditions: rosiglitazone 1 μM compared with derivative-containing composition 20 μg/mL
[4] = tested on: 3T3-L1 cell (mouse-derived precursor adipocyte); assay: Example III-2: index gene expression in adipocytes immediately after inducing differentiation, real-time RT-PCR; conditions: rosiglitazone compared with derivative-containing composition (Prototype Product 4)
[5] = UHA4003 20 μM, vs 0.5% DMSO control, 48 h differentiation, 1 week maturation, relative to β-actin, FIG. I-1
[6] = UHA4003 20 μM in differentiation medium, 10 days culture, vs 0.5% DMSO control, FIG. I-2

Structure (SMILES) | UCP1 gene expression level [1, 5] | expression level of Cox7a1 (mitochondria marker gene) [1, 5] | gene expression level of Cidea (brown-like adipocyte marker gene) [1, 5] | UCP1 gene expression level [2, 6] | expression level of CITED1 gene (brown-like adipocyte marker gene) [2, 6] | expression level of COX7A1 (mitochondria marker gene) [2, 6] | effect which induces the differentiation of the white adipocytes into the brown-like adipocytes ([2]; UHA4003 20 μM, human precursor adipocytes) | effect inducing differentiation of white adipocytes into brown-like adipocytes, comparison between samples ([1]; rosiglitazone 1 μM compared with UHA4003 20 μM) | effect inducing differentiation of white adipocytes into brown-like adipocytes, comparison between samples [3] | effect inducing differentiation of white adipocytes into brown-like adipocytes, comparison between samples [4]
Oc1ccc(/C=C\c2cc(O)c3c(c2)-c2c(O)cc(O)cc2CC3c2ccc(O)cc2)cc1 (stereo not shown) [UHA4003] | increased significantly | increased significantly | increased significantly | increased significantly | increased significantly | increased significantly | extremely potent effect | – | – | –
CN(CCOc1ccc(CC2SC(=O)NC2=O)cc1)c1ccccn1 (stereo not shown) [rosiglitazone] | – | – | – | – | – | – | – | higher | higher effect | higher effect
